Data source: PubChem BioAssay AID504793 (Drosophila RNAi Screening Center, 2011)
In all, the deposit lists about 23,000 reagents; shown is an unselected part of those that have a named target and a result. Of all reagents, 62 (0.27%) are marked active. 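Calls come from follow-up tests whose scores are not deposited, so confirmed genes may have low counts here; counts are not normalised per plate.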 Raw values are not corrected between plates. The numbers tell different reagents against one gene apart. Names joined by + are all predicted targets of the reagent.

- Assay: 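Knock-downs allowing continued mitosis even though DNA is damaged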 (primary screen)
- Cells: Drosophila S2R+ cells
- Reagent: long dsRNA against Drosophila genes, about 0.25 µg dsRNA per well
- Timing: 4 days of dsRNA, then 4 hours of drug before read-out
- Conditions: doxorubicin 0.5 µM for 4 hours to cause double-strand breaks, in cells also given a low, harmless dose of dsRNA against nbs to sensitise the assay
- Measurement: 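Mitotic index as the number of phospho-histone H3-positive cells in each well following doxorubicin, given as raw counts without normalisation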
- Scale: mitotic cells: higher = more cells in mitosis, weaker G2 arrest
- Hit rule: 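Genes are called active only when high mitotic counts were reproduced with independent dsRNAs and mitosis was checked for delay without damage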
- Meaning of the calls: active = confirmed in follow-up tests; inactive = not confirmed

| predicted target | reagent | mitotic cells, replicate 1 | mitotic cells, replicate 2 | call |
| --- | --- | --- | --- | --- |
| CG6661 | 1 | 1 | 8 | inactive |
| CG6661 | 2 | 8 | – | inactive |
| CG6661 | 3 | 10 | – | inactive |
| AMPKalpha (AMP-activated protein kinase alpha subunit) | 1 | 33 | – | inactive |
| AMPKalpha (AMP-activated protein kinase alpha subunit) | 2 | 7 | – | inactive |
| CG17075 | 1 | 8 | – | inactive |
| CG17075 | 2 | 6 | – | inactive |
| ix (intersex) | 1 | 6 | – | inactive |
| ix (intersex) | 2 | 11 | – | inactive |
| wit (wishful thinking) | 1 | 9 | – | inactive |
| wit (wishful thinking) | 2 | 7 | – | inactive |
| brk (brinker) | 1 | 11 | – | inactive |
| brk (brinker) | 2 | 4 | – | inactive |
| Nepl5 (Neprilysin-like 5) | 1 | 10 | – | inactive |
| Nepl5 (Neprilysin-like 5) | 2 | 5 | – | inactive |
| CG5969 | 1 | 1 | – | inactive |
| CG5969 | 2 | 4 | – | inactive |
| Past1 (Putative Achaete Scute Target 1) | 1 | 10 | – | inactive |
| CG42372 + CG30100 | 1 | 6 | – | inactive |
| Scsalpha2 (Succinyl-coenzyme A synthetase alpha subunit 2) | 1 | 3 | – | inactive |
| CG14408 | 1 | 4 | – | inactive |
| smo (smoothened) | 1 | 5 | – | inactive |
| smo (smoothened) | 2 | 7 | – | inactive |

Next part, starting with the last 5 of the part before.
| predicted target | reagent | mitotic cells, replicate 1 | mitotic cells, replicate 2 | call |
| --- | --- | --- | --- | --- |
| CG42372 + CG30100 | 1 | 6 | – | inactive |
| Scsalpha2 (Succinyl-coenzyme A synthetase alpha subunit 2) | 1 | 3 | – | inactive |
| CG14408 | 1 | 4 | – | inactive |
| smo (smoothened) | 1 | 5 | – | inactive |
| smo (smoothened) | 2 | 7 | – | inactive |
| inaF-A | 1 | 12 | – | inactive |
| CG42337 | 1 | 5 | – | inactive |
| CG42337 | 2 | 8 | – | inactive |
| CG42337 | 3 | 8 | – | inactive |
| sll (slalom) | 1 | 3 | – | inactive |
| sll (slalom) | 2 | 6 | – | inactive |
| CNMa (CNMamide) | 1 | 2 | – | inactive |
| MCU (Mitochondrial calcium uniporter) | 1 | 7 | – | inactive |
| CG9636 | 1 | 3 | – | inactive |
| Kap3 (Kinesin associated protein 3) | 1 | 4 | – | inactive |
| Kap3 (Kinesin associated protein 3) | 2 | 2 | – | inactive |
| nonA-l (nonA-like) | 1 | 5 | – | inactive |
| nonA-l (nonA-like) | 2 | 4 | – | inactive |
| Taf9 (TBP-associated factor 9) | 1 | 11 | – | inactive |
| Taf9 (TBP-associated factor 9) | 2 | 8 | – | inactive |
| Dpy-30L1 (Dpy-30-like 1) | 1 | 3 | – | inactive |
| Dpy-30L1 (Dpy-30-like 1) | 2 | 7 | – | inactive |
| CG3323 | 1 | 9 | – | inactive |
| CG8060 | 1 | 7 | – | inactive |
| CG12483 | 1 | 6 | – | inactive |
| CG32365 | 1 | 5 | – | inactive |
| Cp110 (Centriolar coiled coil protein 110kDa) | 1 | 4 | – | inactive |
| Cp110 (Centriolar coiled coil protein 110kDa) | 2 | 8 | – | inactive |
